Reference: publication PMC7064442
No constants are given. Whether binding was seen depends on the method and setting. Binding seen in cells or lysates may run through a third protein. Some binding calls cover weakened binding; strength is not graded here. Sequences can lack the tags named with a protein. Each block holds one binder with its values, some of them ahead of it.

Experiments:
[1] = biological target: SUZ12 (PRC2 member) (mouse (endogenous in MEFs)), Q80U70; test: co-IP; IP with anti-SUZ12 (D39F6) on Dynabeads from whole-cell extracts (NP40 buffer, 50 ug total protein) of DNMT3L- or RFP-expressing MEFs 48 h after doxycycline induction; Western blot for DNMT3L, SUZ12, EZH2; settings: remark: other sources report otherwise
[2] = biological target: T1, N-terminal FLAG-tagged DNMT3L (DNA methyltransferase 3-like) (mouse), Q9CWR8; test: co-IP; IP with anti-FLAG (M2) on Dynabeads from whole-cell extracts (NP40 buffer, 50 ug total protein) of DNMT3L- or RFP-expressing MEFs 48 h after doxycycline induction; Western blot for DNMT3L, SUZ12, EZH2; settings: remark: other sources report otherwise
T1 chain: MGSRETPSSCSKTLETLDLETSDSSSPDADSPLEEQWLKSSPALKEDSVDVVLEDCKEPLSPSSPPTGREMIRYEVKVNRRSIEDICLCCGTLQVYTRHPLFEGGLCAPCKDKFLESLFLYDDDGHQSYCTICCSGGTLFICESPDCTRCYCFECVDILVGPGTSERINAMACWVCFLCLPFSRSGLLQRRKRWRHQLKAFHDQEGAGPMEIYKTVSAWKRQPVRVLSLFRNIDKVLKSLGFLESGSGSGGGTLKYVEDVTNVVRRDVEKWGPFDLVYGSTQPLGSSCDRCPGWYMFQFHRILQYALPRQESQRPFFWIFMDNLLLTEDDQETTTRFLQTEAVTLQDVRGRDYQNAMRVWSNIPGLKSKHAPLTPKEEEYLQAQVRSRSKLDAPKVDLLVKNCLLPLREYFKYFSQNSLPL

binding [1]: binds
B1: N-terminal FLAG-tagged DNMT3L (DNA methyltransferase 3-like), Q9CWR8 1-421 (protein)
chain: T1 chain

binding [2]: binds
B2: SUZ12 (PRC2 member), Q80U70 1-741 (protein)
chain: MAPQKHGGGGGGGSGPSAGSGGGGFGGSAAAVAAAASGGKSGGGGCGGGGSYSASSSSAAAAAAAAGAAVLPVKKPKMEHVQADHELFLQAFEKPTQIYRFLRTRNLIAPIFLHRTLTYMSHRNSRTSIKRKTFKVDDMLSKVEKMKGEQESHSLSAHLQLTFTGFFHKNDKPSQNSENEQNSVTLEVLLVKVCHKKRKDVSCPIRQVPTGKKQVPLNPDLNQTKPGNFPSLAVSSNEFEPSNSHMVKSYSLLFRVTRPGRREFNGMINGETNENIDVSEELPARRKRNREDGEKTFVAQMTVFDKNRRLQLLDGEYEVAMQEMEECPISKKRATWETILDGKRLPPFETFSQGPTLQFTLRWTGETNDKSTAPVAKPLATRNSESLHQENKPGSVKPAQTIAVKETLTTELQTRKEKDNSNESRQKLRIFYQFLYNNNTRQQTEARDDLHCPWCTLNCRKLYSLLKHLKLCHSRFIFNYVYHPKGARIDVSINECYDGSYAGNPQDIHRQPGFAFSRNGPVKRTPITHILVCRPKRTKASMSEFLESEDGEVEQQRTYSSGHNRLYFHSDTCLPLRPQEMEVDSEDEKDPEWLREKTITQIEEFSDVNEGEKEVMKLWNLHVMKHGFIADNQMNHACMLFVENYGQKIIKKNLCRNFMLHLVSMHDFNLISIMSIDKAVTKLREMQQKLEKGESATPSNEEIAEEQNGTANGFSETNSKEKALETDGVSGVPKQSKKQKL
